## Cleaved PARP after 72 h of treatment

Data from the primary screen of doi:10.1371/journal.pone.0140310, rounded.

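Human melanoma cell lines in 1,536-well plates were treated with a pair of drugs for 72 h, then fixed, stained and imaged. Each value is the cleaved-PARP-positive fraction of nuclei relative to DMSO-treated wells, in %, so that 100 equals the control and higher values mean more apoptosis. Every drug was used at one fixed concentration, the higher of two screened. The file gives one value for each pair and line, without errors, so small differences may be noise. The marker varies much from line to line, for technical or biological reasons.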
An unselected part of the screen is shown.
A dash means that no value is listed here.

First drug in all entries: palbociclib, 0.2 µM, CC(=O)c1c(C)c2cnc(Nc3ccc(N4CCNCC4)cn3)nc2n(C2CCCC2)c1=O

Drugs:
nilutamide (5 µM): CC1(C)NC(=O)N(c2ccc([N+](=O)[O-])c(C(F)(F)F)c2)C1=O
temozolomide (10 µM): Cn1nnc2c(C(N)=O)ncn2c1=O
FK866 (0.05 µM): O=C(/C=C/c1cccnc1)NCCCCC1CCN(C(=O)c2ccccc2)CC1
PD173074 (0.5 µM): CCN(CC)CCCCNc1ncc2cc(-c3cc(OC)cc(OC)c3)c(NC(=O)NC(C)(C)C)nc2n1
IMD-0354 (0.08 µM): O=C(Nc1cc(C(F)(F)F)cc(C(F)(F)F)c1)c1cc(Cl)ccc1O
perifosine (2 µM): CCCCCCCCCCCCCCCCCCOP(=O)([O-])OC1CC[N+](C)(C)CC1
VX-702 (2 µM): NC(=O)c1ccc(N(C(N)=O)c2c(F)cccc2F)nc1-c1ccc(F)cc1F

Cell line,temozolomide,nilutamide,FK866,PD173074,IMD-0354,VX-702,perifosine
UACC-62,200,147,367,184,229,249,51.9
C32,60.7,134,879,98.7,324,94.0,57.3
501mel,-,-,-,164,-,-,-
WM1716,158,54.5,106,202,122,123,29.2
IPC-298,120,91.5,409,115,148,91.1,46.0
LB2518-MEL,206,173,158,198,70.8,88.8,119
WM3526,51.4,237,223,61.3,48.8,87.2,118
RPMI-7951,59.5,133,70.6,141,34.2,85.6,179
SK-MEL-28,81.3,83.9,205,293,85.8,157,57.5
WM1745,86.6,129,139,-,144,112,122
SK-MEL-30,68.0,116,67.5,93.3,122,38.4,103
WM115,243,121,524,149,238,102,33.0
RVH-421,160,138,283,85.4,91.3,194,24.7
A375,26.1,-,50.6,160,258,105,131
COLO 792,36.0,281,447,81.9,193,182,200
MeWo,34.5,78.7,96.9,33.1,129,19.0,87.6
COLO 800,89.1,130,125,77.6,44.4,72.5,115
MEL-HO,190,95.4,556,98.5,143,85.4,169
G-361,210,131,6180,129,91.0,38.3,105
A101D,98.9,152,217,130,66.8,181,87.9
SK-MEL-2,35.6,83.0,1620,67.7,53.8,36.8,49.6
COLO 829,106,114,370,102,107,45.9,168
WM3619,112,181,194,173,146,130,136
WM451Lu,50.6,77.5,137,336,118,47.1,49.5
IST-MEL1,109,79.5,44.2,119,180,71.1,167
LOX IMVI,160,55.4,83.9,88.9,240,120,67.4
A2058,286,125,93.9,125,112,93.2,119
MZ2-MEL,82.4,49.1,771,96.2,104,125,73.8
UACC-257,29.7,216,184,39.2,90.0,22.3,49.7
SK-MEL-5,273,272,483,72.7,189,189,106

2 of the entries, repeated:

Cell line	temozolomide	nilutamide	FK866	PD173074	IMD-0354	VX-702	perifosine
SK-MEL-2	35.6	83.0	1620	67.7	53.8	36.8	49.6
SK-MEL-30	68.0	116	67.5	93.3	122	38.4	103